The values that follow come from PubChem BioAssay AID1487 (National Center for Advancing Translational Sciences (NCATS), 2009).

A short description of this test: qHTS Assay for Modulators of Lamin A Splicing. The conditions noted are these: HeLa LMNA splicing GFP/RFP minigene ratio, 48 h. The gist of the method:
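S3 HeLa stable clones carrying a lamin A-EGFP splicing minigene plus DsRed2 were seeded at 600 cells/well in Opti-MEM with 2% FBS, pin-dosed and incubated 48 h at 37°C. Acumen cytometry (488 nm) gave the GFP/RFP total-intensity ratio.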
A general note: In qHTS, concentration-response curves come from the screen itself.

[1] abbreviates: measured here: GFP splicing reporter channel.
[2] abbreviates: measured here: RFP viability control channel.

The structures appear in SMILES notation. Some of the results follow. Further columns of the screen follow, without active or inactive calls. The list favours compounds with an active or inconclusive main result. Potencies come from curve fits of mixed quality, noted in brackets.

One may read the AC50 as the concentration at which the activity in the assay is half-maximal. Regarding `COc1cccc(CNC(=O)CCC2CCCN(C3CCOCC3)C2)c1` (stereo not drawn), the AC50 under setting [1] was 0.0224 µM [rising, full curve]. Take `COc1ccc(C2NC(=S)NC3=C2CCc2ccccc23)cc1OC` (stereo not drawn): under setting [2], the half-maximal activity concentration (AC50) is 8.91 µM [rising, partial curve]. The same measure, in the same setting: the figure for `C/C(=N/NS(=O)(=O)c1ccccc1)c1ccc(Cl)cc1` is 15.8 µM [falling, partial curve, poor fit]. As to `CC(=O)N1CCN(C2=NC(=O)/C(=C\c3cccs3)S2)CC1`, the AC50 under setting [1] was 0.141 µM [falling, partial curve, poor fit] and the AC50 under setting [2] is 15.8 µM [falling, single point]. On to `Cc1c(O)cc2n(c1=O)-c1ccc(Cl)cc1C2(C)C`, for which the AC50 under setting [2] is 12.6 µM [rising, partial curve]. Consider `COc1ccc(NS(=O)(=O)c2c(F)cc(F)c(Cl)c2F)cc1S(=O)(=O)N1CCCCC1`, for which the AC50 under setting [2] is 12.6 µM [rising, partial curve]. `COc1ccc(-c2csc(Nc3ccc(S(=O)(=O)Nc4cc(OC)nc(OC)n4)cc3)n2)cc1`: the AC50 under setting [1] was 15.8 µM [rising, single point] and the AC50 under setting [2] is 22.4 µM [rising, partial curve]. As for `CC(=O)CSc1ncnc2sc3c(c12)CCC(C)C3` (stereo not drawn), the AC50 was 35.5 µM [rising, partial curve, poor fit] under setting [1] and 35.5 µM [rising, partial curve, poor fit] under setting [2].

For `O=C(Nc1ncccn1)c1cc(-c2cccc(Br)c2)nc2ccccc12`, the AC50 is, setting by setting: under setting [1], 17.8 µM [rising, single point]; under setting [2], 31.6 µM [rising, single point]. Take `COc1c(O)cc2oc3cc(O)c(CC=C(C)C)c(O)c3c(=O)c2c1CC=C(C)C`: under setting [1], the AC50 is 35.5 µM [falling, single point]. With `O=C(Nc1ccc(Cl)c(Cl)c1)OCCNC(=O)c1cccc(Cl)c1`, the AC50 runs as follows: under setting [1], 12.6 µM [rising, partial curve, poor fit]; under setting [2], 15.8 µM [rising, single point]. Take `CSc1nsc(/C=C/Nc2ccc(C)cc2)c1C#N`: the AC50 under setting [1] is 6.31 µM [rising, partial curve]. In the case of `O=S(=O)(c1cccc2nonc12)N1CCN(c2ccccc2F)CC1`, the AC50 was 14.1 µM [falling, partial curve] under setting [1] and 8.91 µM [falling, partial curve, poor fit] under setting [2].

`O=C1C=CC(=O)N1CCNc1ncc(C(F)(F)F)cc1Cl`: the AC50 reads like this: under setting [1], 7.08 µM [falling, partial curve]; under setting [2], 7.08 µM [falling, partial curve, poor fit]. Consider `COc1ccc(-c2csc(NC(=O)c3ccccc3NS(=O)(=O)c3ccc(C)cc3)n2)cc1`, for which the AC50 under setting [2] was 3.55 µM [rising, full curve]. Same read-out and setting: the figure for `CC(=O)Nc1ccc(NC(=O)C(C)OC(=O)C2(c3ccc(Cl)cc3)CCCC2)cc1` (stereo not drawn) is 14.1 µM [rising, single point].

Regarding `CCOC(=O)c1nnn(-c2nonc2N)c1CSc1ccc(C)cc1`, the AC50 was 14.1 µM [rising, partial curve] under setting [1] and 12.6 µM [rising, partial curve] under setting [2].

`Cc1cc(=O)c2c(O)c(O)ccc2o1`: the AC50 under setting [1] is 15.8 µM [falling, partial curve] and the AC50 under setting [2] is 11.2 µM [falling, partial curve].

Turning to `CN1CCN(C(=S)c2ccc(OCC(=O)Nc3cccc(C(F)(F)F)c3)cc2)CC1`, the AC50 runs as follows: under setting [1], 7.94 µM [rising, partial curve, poor fit]; under setting [2], 12.6 µM [rising, partial curve].

With `c1ccc(-n2nnnc2Sc2ncnc3sc4c(c23)CCCC4)cc1`, under setting [2], the AC50 is 0.1 µM [rising, full curve].

Regarding `COc1ccc(-c2noc(N3CCC(C(=O)N4CCN(c5ccccc5F)CC4)CC3)n2)cc1`, the AC50 is, setting by setting: under setting [1], 11.2 µM [falling, partial curve, poor fit]; under setting [2], 10 µM [falling, partial curve, poor fit].

Turning to `C1CC2CN(c3nc4nonc4nc3N3CCSCC3)CCN2C1` (stereo not drawn), the half-maximal activity concentration (AC50) under setting [1] was 35.5 µM [falling, partial curve, poor fit] and the AC50 under setting [2] was 0.0112 µM [falling, full curve, poor fit]. `O=C(Nc1ccc(Cl)c(Cl)c1)C1CC(=O)N(c2ccc(Br)cc2)C1` (stereo not drawn): the AC50 reads like this: under setting [1], 22.4 µM [falling, single point]; under setting [2], 22.4 µM [falling, single point].

As to `Cc1nn2c(=O)cc(COC(=O)c3ccco3)nc2s1`, the AC50 under setting [2] is 0.0178 µM [falling, full curve, poor fit]. For `S=c1[nH]nc(-c2cccnc2)n1/N=C/C(Cl)=C\c1ccccc1`, the AC50 by setting is: under setting [1], 17.8 µM [rising, partial curve, poor fit]; under setting [2], 12.6 µM [rising, partial curve]. With `CC1(C)NC(=O)N(CCOc2cccc(Oc3ccccc3)c2)C1=O`, the AC50 was 12.6 µM [rising, partial curve] under setting [1] and 20 µM [rising, single point] under setting [2]. Take `CC(C)(CNC(=O)c1ccc([N+](=O)[O-])c(Cl)c1)CNC(=O)c1ccc([N+](=O)[O-])c(Cl)c1`: the AC50 reads like this: under setting [1], 28.2 µM [falling, single point]; under setting [2], 22.4 µM [falling, single point]. As to `CCn1cc(Br)c(C(=O)Nc2ccc(C(=O)OC(C)C)cc2)n1`, the AC50 under setting [1] is 14.1 µM [rising, single point]. Take `CCOC(=O)c1c(-c2ccc(C)cc2)csc1NC(=O)c1cc2ccccc2oc1=O`: the AC50 under setting [1] was 3.16 µM [falling, single point] and the AC50 under setting [2] is 8.91 µM [falling, single point]. For `COc1ccc(S(=O)(=O)N2CCCCC2)cc1NC(=O)c1ccc([N+](=O)[O-])o1`, the AC50 under setting [2] is 0.562 µM [rising, full curve, poor fit]. With `C=CCn1c(O)c(N=NC(=S)Nc2cccc(OC)c2)c2ccccc21`, the AC50 was 7.94 µM [rising, partial curve] under setting [1] and 10 µM [rising, partial curve] under setting [2]. As to `CC(C)(c1ccccc1)c1ccc(OCCCNCCO)cc1`, the AC50 under setting [1] is 7.08 µM [rising, partial curve, poor fit]. With `CCC(=O)N1c2ccccc2CC1C(=O)N1CCN(c2cccc(Cl)c2)CC1` (stereo not drawn), the AC50 under setting [2] was 12.6 µM [rising, partial curve, poor fit]. `Cc1ccc(C2=NNC(=Nc3ccc(F)cc3)SC2)cc1`: under setting [2], the AC50 is 35.5 µM [rising, single point]. With `Brc1ccc(COc2ncnc3ccccc23)cc1`, under setting [2], the AC50 was 7.94 µM [falling, partial curve, poor fit].

Take `COc1ccc(NC(=S)N2CCN(C/C=C/c3ccccc3)CC2)cc1`: the AC50 under setting [2] was 35.5 µM [rising, single point]. On the same count and under the same terms, for `COCc1nnc(NC(=O)c2ccc(S(=O)(=O)N(C)C3CCCCC3)cc2)o1` the value was 14.1 µM [rising, partial curve]. As to `CC(C)n1cc(C(=O)c2cc(Br)ccc2O)cc(C#N)c1=O`, the concentration at half-maximal activity (AC50) under setting [2] is 35.5 µM [rising, single point]. Take `COc1ccc(OCCN2CCN(C3CC(=O)N(CCC(C)C)C3=O)CC2)cc1` (stereo not drawn): the AC50 is, setting by setting: under setting [1], 11.2 µM [rising, partial curve, poor fit]; under setting [2], 12.6 µM [rising, single point].

Turning to `COCCCN(C(=S)Nc1ccc(C)cc1Cl)C(C)c1ccncc1` (stereo not drawn), the AC50 is, setting by setting: under setting [1], 31.6 µM [rising, single point]; under setting [2], 25.1 µM [rising, single point].

Take `CN1CCN(C(=O)/C=C/c2ccc([N+](=O)[O-])cc2)CC1`: under setting [1], the AC50 was 0.02 µM [rising, full curve, poor fit].

For `CC(=O)c1ccc(NC(=O)Nc2ccc(NS(=O)(=O)c3ccc(C)cc3)cc2)cc1`, the AC50 runs as follows: under setting [1], 35.5 µM [rising, single point]; under setting [2], 22.4 µM [rising, partial curve, poor fit]. Regarding `CC(C)(C)c1nnc(N/N=C/c2cc(Br)ccc2O)n(N)c1=O`, the AC50 is, setting by setting: under setting [1], 35.5 µM [falling, single point]; under setting [2], 3.16 µM [falling, single point].

As for `Cc1cc(OCC(=O)Nc2ccc3c(c2)OCCO3)ccc1Cl`, the AC50 was 35.5 µM [rising, single point] under setting [1] and 31.6 µM [rising, single point] under setting [2]. `CCOC(=O)N1CCC(=NNc2ccc(S(N)(=O)=O)cc2[N+](=O)[O-])CC1`: the AC50 under setting [2] is 0.00562 µM [falling, full curve, poor fit]. As to `O=C1CCCC2=C1C(c1ccc(O)c(O)c1)Nc1ccc3ncccc3c12` (stereo not drawn), the AC50 under setting [2] was 10 µM [rising, partial curve]. With `NS(=O)(=O)c1ccc(CNC(=S)NCc2ccc(Cl)cc2)cc1`, the AC50 under setting [1] was 31.6 µM [rising, single point]. Take `COc1cc2[nH]c(=O)c(C(=O)NCCCN3CCOCC3)c(O)c2cc1OC`: the AC50 under setting [2] is 0.282 µM [falling, full curve]. For `COc1ccc(C(=O)c2oc3nc(C)cc(C)c3c2N)cc1`, the AC50 under setting [1] was 12.6 µM [rising, single point] and the AC50 under setting [2] was 17.8 µM [rising, single point]. Turning to `N#Cc1c(C(F)(F)F)cc(-c2cccc(Cl)c2)[nH]c1=O`, under setting [2], the AC50 is 12.6 µM [rising, partial curve].

As for `CCCCCOC(=O)c1[nH]c2c(c1C)C(=O)C(C(=O)OC)C(C)C2` (stereo not drawn), the AC50 under setting [2] was 12.6 µM [rising, single point]. With `Cc1ccc(CNC(=O)c2sc3nc4c(c(C(F)(F)F)c3c2N)CCC4)cc1`, the AC50 was 15.8 µM [rising, single point] under setting [1] and 25.1 µM [rising, single point] under setting [2]. In the case of `O=C(CSc1nc(-c2ccc(F)cc2)cs1)Nc1ccccn1`, the AC50 under setting [2] was 3.98 µM [falling, single point].
